Literature values, collected in US20010051618A1 (priority 2000, published 2001).

Experiments:
[1] = system: ventromedial nucleus of hypothalamus (VMH); details: Yokawa et al. 1990; cited from earlier work
kainate receptor = details: rat; Narita et al. 1993; cited from earlier work

NCCCC(=O)O [GABA, γ-aminobutyric acid]
inhibition of rat running activity caused by polymers [1]: could be inhibited
inhibition of running activity induced by kainate (kainate receptor): not inhibited
